# From PubChem BioAssay AID1671190 (National Center for Advancing Translational Sciences (NCATS), 2021)
# Amino acid sequences for entries named in this document (tags omitted).
# UniProt P18054, whole entry, looked up: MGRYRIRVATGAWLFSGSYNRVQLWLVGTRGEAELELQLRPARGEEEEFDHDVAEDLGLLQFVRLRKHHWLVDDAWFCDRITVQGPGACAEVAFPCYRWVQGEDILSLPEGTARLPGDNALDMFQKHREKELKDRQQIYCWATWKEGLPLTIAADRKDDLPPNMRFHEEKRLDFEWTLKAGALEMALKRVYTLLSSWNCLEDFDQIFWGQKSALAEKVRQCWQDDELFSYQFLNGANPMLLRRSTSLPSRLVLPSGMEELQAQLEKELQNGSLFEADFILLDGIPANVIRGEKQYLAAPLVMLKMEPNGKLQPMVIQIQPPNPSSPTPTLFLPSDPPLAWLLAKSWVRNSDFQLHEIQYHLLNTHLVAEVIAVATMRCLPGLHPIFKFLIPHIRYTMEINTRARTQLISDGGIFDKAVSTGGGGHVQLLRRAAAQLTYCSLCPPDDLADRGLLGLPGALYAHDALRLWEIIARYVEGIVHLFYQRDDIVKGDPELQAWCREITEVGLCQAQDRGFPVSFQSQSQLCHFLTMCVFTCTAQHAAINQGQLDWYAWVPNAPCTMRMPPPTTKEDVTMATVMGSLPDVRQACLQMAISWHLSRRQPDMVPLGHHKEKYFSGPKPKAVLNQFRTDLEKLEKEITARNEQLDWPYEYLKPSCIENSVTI
# In all, about 580,000 compounds went through this assay and about 6,100 (1.1%) were called active. The inconclusive results got no clear call from the source; some entries with a clear call stand among them for comparison. Calls come from the whole dose curve; as a rule, active = well fitted inhibition curve with a large enough effect; inconclusive = small, poorly fitted or top-dose-only effect, or another doubt; inactive = no such curve, though single readings can be large or run the other way. Potencies of inconclusive entries are doubtful fits and often do not repeat.
# Target: Polyunsaturated fatty acid lipoxygenase ALOX12 (Homo sapiens) (UniProt P18054)
# Assay: Primary qHTS assay for inhibitors of human arachidonate 12S-lipoxygenase (ALOX12): Round 2
# Settings: purified 12hLO, xylenol orange hydroperoxide absorbance; activity change, negative = inhibition: at 108 µM (top of the series) unless noted
# Outline: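 Hydroperoxide product was detected by ferrous iron/xylenol orange as the 573 to 405 nm absorbance ratio. Arachidonic acid at 40 uM (final) was turned over for 30 min at room temperature by 150 nM human 12hLO, pH 7.0 Hepes buffer, after 15 min compound preincubation.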
# % is set by controls: 0 for no effect and ±100 for the full control effect; potency is the fitted concentration of half-maximal effect.
Structure (SMILES),Potency,"activity change, negative = inhibition"
Cc1ccc(-c2cc(C(=O)NCc3ccco3)c3ccccc3n2)cc1C,inactive,–
COc1cc(C)ccc1OCc1cc(C(=O)NC2CCOCC2)no1,"inconclusive: 126 µM [inhibitor, single point]",–
CCC(Sc1nc2ccc(N)cc2s1)C(=O)Nc1nccs1 (stereo not drawn),"inconclusive: 56.2 µM [inhibitor, partial curve, poor fit]",–
CN(Cc1ccccc1)C(=O)c1cnc(Cc2c[nH]c3ccccc23)c(I)c1,inactive,–
O=C(Nc1ccc(F)cc1)[C@@H]1C[C@@H](c2cccc(C(F)(F)F)c2)N(CC2CCOCC2)C1,inactive,–
COc1ccc2oc(C(=O)OC(C)C#N)c(C)c2c1 (stereo not drawn),"inconclusive: 89.1 µM [inhibitor, partial curve, poor fit]",–
C=CCn1c(N)c(C(=O)NCc2cccnc2)sc1=S,inactive,–
O=C(Nc1c(C(=O)N2CCN(c3ccccc3F)CC2)oc2ccccc12)c1ccco1,"inconclusive: 39.8 µM [inhibitor, single point]",–
Brc1ccccc1C1CC(c2ccccc2)=Nc2ccccc2N1 (stereo not drawn),"inconclusive: 141 µM [inhibitor, partial curve, poor fit]",–
COC(=O)c1c(C)[nH]c(-c2ccccc2F)c1C1C(=O)Nc2ccccc21 (stereo not drawn),"inconclusive: 44.7 µM [inhibitor, single point]",–
CN1C(=O)C(=O)/C(=C(/O)c2ccc(Br)cc2)C1c1cccc([N+](=O)[O-])c1 (stereo not drawn),"inconclusive: 17.8 µM [inhibitor, full curve, poor fit]",–
O=C1NCCCCCCN(C(=O)c2ccco2)[C@H]2C[C@H](c3nc(Cc4ccccc4)no3)C[C@@H]12,inactive,–
COc1ccc(/C=C2/C(=O)N(C)C(=S)N2C)cc1,"inconclusive: 44.7 µM [inhibitor, partial curve, poor fit]",–
CSCC(=O)N1CCC2(CCN(Cc3nccnc3C)CC2)C(CO)C1 (stereo not drawn),inactive,–
C=CC[C@@H](CC(=O)N[C@H](CO)Cc1ccccc1)C(=O)N[C@H](COC(=O)[C@@H](CC=C)Cc1ccc(F)cc1)Cc1ccccc1,"inconclusive: 44.7 µM [inhibitor, single point]",–
S=C(NN=C(c1ccccc1)c1ccccn1)N(Cc1ccccn1)Cc1ccccn1,active: 44.7 µM,–
CC1CN(C(=O)C2CCN(c3nc(-c4ccccc4)nc4c3CCC4)CC2)CCN1 (stereo not drawn),"inconclusive: 17.8 µM [inhibitor, full curve, poor fit]",–
Cc1ccc(CN(CC(=O)N(C)Cc2ccsc2)C2CC2)cc1,"inconclusive: 31.6 µM [inhibitor, partial curve, poor fit]",–
COc1cc2c(cc1OC)C(C)N(C(=O)c1cc(Cl)cc(Cl)c1)CC2 (stereo not drawn),"inconclusive: 2.82 µM [inhibitor, full curve, poor fit]",–
COc1ccc(-c2cc(C(=O)NCC(C)C)c3c(C)nn(-c4ccccc4)c3n2)cc1,"inconclusive: 50.1 µM [inhibitor, partial curve]",–
CCc1ccc(-c2ccccc2)nc1-c1ccccc1,inactive,–
COc1ccccc1Oc1ccnc2cc(Cl)ccc12,inactive,–

# Four compounds already listed, sorted by formula weight, ascending:
Structure (SMILES),Potency,"activity change, negative = inhibition"
Cc1ccc(-c2cc(C(=O)NCc3ccco3)c3ccccc3n2)cc1C,inactive,–
CC1CN(C(=O)C2CCN(c3nc(-c4ccccc4)nc4c3CCC4)CC2)CCN1 (stereo not drawn),"inconclusive: 17.8 µM [inhibitor, full curve, poor fit]",–
COc1ccc(-c2cc(C(=O)NCC(C)C)c3c(C)nn(-c4ccccc4)c3n2)cc1,"inconclusive: 50.1 µM [inhibitor, partial curve]",–
S=C(NN=C(c1ccccc1)c1ccccn1)N(Cc1ccccn1)Cc1ccccn1,active: 44.7 µM,–

# Remaining list, next part

Structure (SMILES),Potency,"activity change, negative = inhibition"
COc1ccc(NC(=O)C23CC4CC(CC(Cl)(C4)C2)C3)cc1S(=O)(=O)N1CCOCC1,"inconclusive: 112 µM [inhibitor, partial curve, poor fit]",–
COc1ccc(C2c3c(n[nH]c3C)Nc3[nH]c(=O)[nH]c(=O)c32)c(OC)c1 (stereo not drawn),inactive,–
CCOC(=O)C1CCN(CC(=O)N2C(C)CCCC2C)CC1 (stereo not drawn),"inconclusive: 0.501 µM [inhibitor, full curve, poor fit]",–
COc1ccc(-n2nc3cc(C)c(N)c(Br)c3n2)cc1,active: 28.2 µM,–
Cc1ccc(C)n1-c1sc2c(c1C(=O)O)CCCC2,"inconclusive: 20 µM [inhibitor, partial curve, poor fit]",–
COc1cnn(-c2ccccc2)c(=O)c1SCc1ccc(Cl)cc1Cl,"inconclusive: 35.5 µM [inhibitor, partial curve, poor fit]",–
CCc1nnc(NC(=O)Cc2ccc(OC)cc2)s1,inactive,–
Cc1ccc(-c2nc3ccccc3o2)cc1NC(=S)NC(=O)c1cccs1,"inconclusive: 3.98 µM [inhibitor, full curve, poor fit]",–
N#CC1=C2SCN(C3CCCCC3)CN2C(=O)CC1c1ccc(Br)cc1 (stereo not drawn),"inconclusive: 31.6 µM [inhibitor, partial curve, poor fit]",–
C=CCn1c(=S)[nH]c2sc3c(c2c1=O)CCCC3,"inconclusive: 35.5 µM [inhibitor, partial curve, poor fit]",–
Cc1ccc(OCC(=O)N2N=C(c3ccc(Cl)cc3)CC2c2ccco2)c([N+](=O)[O-])n1 (stereo not drawn),"inconclusive: 56.2 µM [inhibitor, partial curve, poor fit]",–
CCOC(=O)c1c(NC(=O)CCC(=O)O)sc2c1CCCCC2,"inconclusive: 44.7 µM [inhibitor, partial curve, poor fit]",–
COc1ccc(CN2CCc3c([nH]c4ccccc34)C2)cc1Br,"inconclusive: 3.55 µM [inhibitor, full curve, poor fit]",–
O=C(NCc1ccncc1)c1ccc(Br)cc1,–,inconclusive: -33.1% [inhibitor]
Cc1ccccc1C(=O)OC(C)C(=O)c1ccc2c(c1)CCC2 (stereo not drawn),"inconclusive: 35.5 µM [inhibitor, single point]",–
Fc1ccc(-c2cnc(-c3cccs3)o2)cc1,inactive,–
COc1ccc(Cn2nnnc2C(c2cc3cccc(C)c3[nH]c2=O)N2CCOCC2)cc1 (stereo not drawn),inactive,–
O=C(NC(Cc1c[nH]c2ccccc12)C(=O)O)/C(=C/c1ccc(F)cc1)NC(=O)c1ccccc1 (stereo not drawn),"inconclusive: 89.1 µM [inhibitor, partial curve, poor fit]",–
CCc1nc2c(OCc3ccc(C#N)cc3)cccn2c1N(C)C(=O)C(C)C,inactive,–
Cc1ccc(-n2nnnc2SCC(=O)Nc2cc(C)nn2-c2ccccc2)cc1,"inconclusive: 100 µM [inhibitor, partial curve, poor fit]",–
FC(F)(F)CN1CCNCC1,"inconclusive: 31.6 µM [inhibitor, partial curve, poor fit]",–
